Experimental data taken from patent US20170247475A1.
These are yes or no findings as the source states them, for the method shown. Some entries that bind do so weakly or less than the wild type.

Sequences of proteins named here, by UniProt entry; tags and fusion partners are left off. A change or cut given only in a name is not applied to a line headed by its entry. Residues count along the entry.
UniProt P17948, residues 27-756: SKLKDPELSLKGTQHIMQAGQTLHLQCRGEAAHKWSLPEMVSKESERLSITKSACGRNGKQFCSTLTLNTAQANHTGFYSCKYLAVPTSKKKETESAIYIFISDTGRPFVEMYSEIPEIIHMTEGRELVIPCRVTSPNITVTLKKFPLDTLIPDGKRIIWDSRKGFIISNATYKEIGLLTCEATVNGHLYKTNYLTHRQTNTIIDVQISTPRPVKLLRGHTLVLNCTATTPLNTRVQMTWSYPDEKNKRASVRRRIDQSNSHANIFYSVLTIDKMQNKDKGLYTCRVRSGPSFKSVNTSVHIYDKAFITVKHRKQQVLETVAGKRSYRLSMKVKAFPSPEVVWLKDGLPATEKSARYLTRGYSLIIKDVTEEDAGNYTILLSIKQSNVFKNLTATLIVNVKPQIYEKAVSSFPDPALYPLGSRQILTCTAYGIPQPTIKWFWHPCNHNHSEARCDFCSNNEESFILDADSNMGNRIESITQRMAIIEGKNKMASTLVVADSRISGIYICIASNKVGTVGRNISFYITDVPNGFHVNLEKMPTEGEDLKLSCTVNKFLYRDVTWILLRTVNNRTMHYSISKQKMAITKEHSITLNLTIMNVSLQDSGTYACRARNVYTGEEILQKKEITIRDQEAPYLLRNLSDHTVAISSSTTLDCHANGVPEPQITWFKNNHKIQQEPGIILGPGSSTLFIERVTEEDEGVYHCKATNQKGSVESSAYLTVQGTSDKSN

Tests used:
[1] = target: T1, human VEGF-B (human) (UniProt P49765); assay: binding ELISA on coated VEGFB
T1 sequence (looked up): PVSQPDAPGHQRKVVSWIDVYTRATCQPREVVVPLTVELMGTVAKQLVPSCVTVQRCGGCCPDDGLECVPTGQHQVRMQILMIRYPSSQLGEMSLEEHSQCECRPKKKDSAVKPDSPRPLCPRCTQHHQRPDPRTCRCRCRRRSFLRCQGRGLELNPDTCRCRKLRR

[2] = target: T2, human PIGF (human) (UniProt P49763); assay: binding ELISA on coated PIGF
T2 sequence (looked up): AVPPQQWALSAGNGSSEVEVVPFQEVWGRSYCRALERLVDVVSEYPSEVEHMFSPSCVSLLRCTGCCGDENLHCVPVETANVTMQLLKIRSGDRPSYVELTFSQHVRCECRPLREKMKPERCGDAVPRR

[3] = target: T1, human VEGF-B (human); assay: binding ELISA on coated hVEGF-B (1 µg/mL)
[4] = target: T2, human PIGF (human); assay: binding ELISA on coated hPIGF (1 µg/mL)

binding [1]: binds | binding [2]: binds | binding [3]: binds | binding [4]: binds
Substance: human VEGFR1-Fc chimera (from UniProt P17948 27-756) (Fc fusion)
